From PubChem BioAssay AID1347426 (Functional Genomics Laboratory (NCATS/FGL), 2020) come the findings set out here.

Screen size: about 31,000 sequences; about 1,400 (4.5%) were called active.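 The calls were made as follows: active = median seed-adjusted z-score above 1 or below -1; inactive = the rest.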 The list shows a part of the results.

A short description of this experiment: Novel Modifiers of Survival Motor Neuron (SMN) Protein: Gene Identification via Genome-wide siRNA Screen.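 Also: luminescence tracks full-length SMN protein made from the SMN2 reporter.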 The conditions noted are these: HEK293T SMN2-luciferase reporter, siRNA knockdown, 72 h; actives lie on both sides. In outline:
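Luciferase signal, proportional to full-length SMN made from an SMN2 cDNA reporter in stable HEK293T cells, was read 72 h after siRNA reverse transfection. Values were expressed as MAD scores after non-targeting-control normalization and log10 conversion; seed analysis flagged off-targets.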
In general terms: Reporter assays use an easily measured gene product as a stand-in for the process of interest.
On to GCUUCAAUGAGACAACCCUTT against IP6K2, for which the median seed-adjusted z-score is inactive: -0.193. CCAUCGAGUUUGUUACCCATT against GRIK2: the median seed-adjusted z-score was inactive: 0.00242. To GCACCUUCCCAACCAUCAATT against GPX2 belongs inactive: -0.21; to GUAGUACUCUAGAUCGAAUTT against SOS2, inactive: 0.3. To CAACAUACCUAGACCUCCATT against LPCAT2 belongs inactive: 0. For AAGUGUCAGUGAGAAUGAATT against CACNG2 the value was inactive: 0.00759; for CGACUCUGAUCGUUAUGAUTT against PFKFB2, inactive: 0.311; for GCAGCUACCUUUAGAUUCATT against MTHFD1, inactive: 0.554. CAGUAUGUGCUAUAAUAUUTT against FZD4: the median seed-adjusted z-score is inactive: 0.0695. Take ACAUAAAGGUGAAAAGCGATT against NEFH: the median seed-adjusted z-score is inactive: 0.688. For CCAAGAUGAUUGUCCCAAATT against AGTR1 the value was inactive: 0.106; for ACAAUGCCUUUGACCAGUATT against CAPZB, inactive: -0.106; for GUCCGAGUGUGGUUCUGUATT against POU5F1, inactive: 0.0495.

GCAACUGCUUUAAACCCGATT against SMG1: the median seed-adjusted z-score is inactive: -0.106. Turning to GCCUGGUAUUUUGAAAUCATT against ASH2L, the median seed-adjusted z-score was inactive: -0.464. Consider UGUCCGUGCUUGCCUCGUATT against ATP13A1, for which the median seed-adjusted z-score is inactive: 0.488.

For the sequence GCCCAAAACUUGCUAAACATT against ZNF165, the median seed-adjusted z-score was inactive: 0.602. To GGAGAGUGUAGAUCCCAAATT against IL1B belongs inactive: -0.21; to GCAGCGAGAAUUUCGACGATT against CRABP1, inactive: -0.625; to GGGCUAAACUCUCCAAGCUTT against SLC46A1, inactive: -0.00763. As to GCAUCAUCGUCUACCGCAATT against ADAM8, the median seed-adjusted z-score was inactive: -0.407.

As for CCAUCGAUGUCUCUGCUAUTT against ABCA1, the median seed-adjusted z-score is active: -1.27. On to GCACUAAGAGUGACGUGUATT against PSKH1, for which the median seed-adjusted z-score is active: -2.03. To GCAACGACAUCAUUGUUCUTT against CTNNA3 belongs inactive: 0.249; to UAACCACUCUGUGCAAGUATT against VEGFB, inactive: 0; to GGUGGAUUCCUAACUAUGATT against GPR34, inactive: 0.529. With GAUGAUUGGUGUGACGGAATT against AGPAT4, the median seed-adjusted z-score is inactive: 0.149.

Take GGCCUUUGGUGAAAACCGUTT against CLDN11: the median seed-adjusted z-score is inactive: 0.268. For CCAGCGAUACCUACAAGAATT against CAPN2, the median seed-adjusted z-score is inactive: -0.0828. To GCAGUGAAGGUACUACAGATT against SGK2 belongs inactive: 0.306. To GGCUUAUGACUGCCUAUAATT against SEL1L belongs inactive: 0.438; to GGACUUUGAUUGCUAGCAATT against CTRC, inactive: -0.104. To GGGCAAUGCUGGAAUGGUUTT against JRKL belongs inactive: -0.227; to GGUCCCUAAUGAGCACAGATT against SLC12A7, inactive: -0.0309; to GACCGUUCAGUAUAUACUATT against ATP6V1H, inactive: 0.146. As for CAGAGGCUGGUGCACAGUUTT against SPRR4, the median seed-adjusted z-score is inactive: 0.211.

Regarding GUACAUCGAGUGAAGAUUATT against ROD1, the median seed-adjusted z-score is inactive: 0.42. In the case of CGAAGAUCAUAUCUACCAATT against TCEA3, the median seed-adjusted z-score was inactive: -0.28. As for CUACACCUGUUUCAACAGATT against USPL1, the median seed-adjusted z-score is active: -1.87. For the sequence CUCUGACUUUGACUACUCATT against TFF1, the median seed-adjusted z-score is inactive: -0.469. For GCCAUGAACCGCCACAACATT against WNT3A the value was inactive: -0.66. In the case of GGAUAGCACAUGAUACAGATT against GAN, the median seed-adjusted z-score is active: -1.07.

On to GCAUAGAAAUCCAAAGUAUTT against CYP39A1, for which the median seed-adjusted z-score is inactive: 0.196. For GGCGAAGCAUGAAGCGGAATT against VDR the value was inactive: -0.031; for GAUCGUAUGCAGAAGGAAATT against ACTC1, inactive: 0; for CGUGAACCUAGAAACCCAATT against IL27RA, inactive: 0.887. To GAGCUCAACGUACAAAAGATT against STX11 belongs inactive: -0.518; to GGAUAUCACUACUUUAACUTT against NDUFS4, inactive: 0.336.

As for GACUAAAGCUUGUCUCAGATT against HARS, the median seed-adjusted z-score was inactive: -0.722. As for CCACCAUGAUGUUCGGGUATT against CDC20, the median seed-adjusted z-score is inactive: 0.191. As for CCUCUUCCACCGCUACUUCTT against TREX2, the median seed-adjusted z-score is inactive: -0.918. For CGGGAGAACGGGAUCAAUATT against DHPS the value was inactive: 0.0662; for CCAGGUCUUUCUUAACGUATT against EMX1, inactive: -0.689.

As to AGAUCGCAGAGAACAACGATT against BIN1, the median seed-adjusted z-score is inactive: 0. For GGAAGAAUCGGAAAAACAATT against ZBTB46 the value was inactive: 0.0546.

With UCUUGGACUUGUCCAAGUATT against LSM7, the median seed-adjusted z-score was inactive: -0.45.

Take GGAUGUGGAUGGAACAACATT against ITGA7: the median seed-adjusted z-score was inactive: 0.13. For CAAUGAGAAGUUUUACGAUTT against ZBED4 the value was inactive: -0.553.

Consider GGAGGGCAGGUUACAAAGATT against ZKSCAN4, for which the median seed-adjusted z-score was inactive: 0.0558. To GGGCAGAAUUGGAAUGCGATT against CNTNAP4 belongs inactive: -0.414; to GCUGCUUUGUUCUAGGUCATT against LRIT3, inactive: 0.0324. Turning to GCAGUACGGAAGCUACCGATT against SS18L1, the median seed-adjusted z-score was inactive: -0.174. For the sequence GGCUAUACAGGGUAGACAATT against PXDNL, the median seed-adjusted z-score is inactive: -0.186. In the case of CCGAUCCAUUAUCAACAUATT against ARSJ, the median seed-adjusted z-score is inactive: -0.0978. With CAGCGGUUUUGAAUGACUATT against IKZF3, the median seed-adjusted z-score is inactive: 0.0181.

Turning to GGUUCCCACUUAAAAAUUATT against BID, the median seed-adjusted z-score is inactive: 0.342. For the sequence CCGGGACCCUGUUCAAGAATT against NAGS, the median seed-adjusted z-score is inactive: 0.0484. With GAGUUAGAGGACAACUUAATT against ZFP30, the median seed-adjusted z-score was inactive: 0.211. For GCAGAAAACUCACCCGAGATT against PCDHB7 the value was inactive: 0.365.
